{"source": "PubChem BioAssay AID504774 (Drosophila RNAi Screening Center, 2011)", "purpose": "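Fly genes whose loss alters survival after alkylation damage to DNA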 (primary screen)", "cells": "Drosophila Kc167 cells", "reagent": "long dsRNA against Drosophila genes, about 0.25 µg dsRNA per well", "duration": "about 6 days: 3 days knock-down, then 3 days with or without MMS", "treatment": "methyl methanesulphonate 0.004% (w/v) for 3 days after knock-down", "measurement": "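Viability in wells given MMS, read as ATP luminescence, normalised by quantiles plate by plate and averaged across replicates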", "direction": "mean viability with MMS: higher = more surviving cells after MMS", "note": "In all, the deposit lists about 23,000 reagents; below is an unselected part of those with a known target gene and a result. 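Values are quantile-normalised luminescence on an arbitrary scale; higher means more cells surviving MMS.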 The numbers tell different reagents against one gene apart. A plus sign joins genes that one reagent is predicted to hit. Further read-outs or replicates are left out here. Reagent sequences are not shown."}
{"gene": "CG13070", "dsRNA no.": 1, "mean viability with MMS": 3.51e6}
{"gene": "CG34299", "dsRNA no.": 1, "mean viability with MMS": 3.31e6}
{"gene": "Epg5", "dsRNA no.": 1, "mean viability with MMS": 3.83e6}
{"gene": "tbrd-3", "dsRNA no.": 1, "mean viability with MMS": 3.40e6}
{"gene": "Cdk8", "dsRNA no.": 1, "mean viability with MMS": 3.41e6}
{"gene": "Gr89a", "dsRNA no.": 1, "mean viability with MMS": 3.24e6}
{"gene": "Damm", "dsRNA no.": 1, "mean viability with MMS": 3.58e6}
{"gene": "snoRNA:Me28S-C3227a + snoRNA:Me18S-A1061 + snoRNA:Me28S-C3227b + 7 more", "dsRNA no.": 1, "mean viability with MMS": 3.57e6}
{"gene": "Gr10a", "dsRNA no.": 1, "mean viability with MMS": 3.41e6}
{"gene": "Gr10a", "dsRNA no.": 2, "mean viability with MMS": 3.49e6}
{"gene": "NKAIN", "dsRNA no.": 1, "mean viability with MMS": 3.52e6}
{"gene": "NKAIN", "dsRNA no.": 2, "mean viability with MMS": 3.60e6}
{"gene": "CG7115", "dsRNA no.": 1, "mean viability with MMS": 3.56e6}
{"gene": "CG14088", "dsRNA no.": 1, "mean viability with MMS": 3.52e6}
